From patent US7122382 come the findings set out here.

The target of the experiment is T1, MB20 protein (function unknown, 2-10F) (mouse) (UniProt Q794H2).
T1 sequence (35S-methionine label or biotinylated lysine, by its role in the assay, looked up): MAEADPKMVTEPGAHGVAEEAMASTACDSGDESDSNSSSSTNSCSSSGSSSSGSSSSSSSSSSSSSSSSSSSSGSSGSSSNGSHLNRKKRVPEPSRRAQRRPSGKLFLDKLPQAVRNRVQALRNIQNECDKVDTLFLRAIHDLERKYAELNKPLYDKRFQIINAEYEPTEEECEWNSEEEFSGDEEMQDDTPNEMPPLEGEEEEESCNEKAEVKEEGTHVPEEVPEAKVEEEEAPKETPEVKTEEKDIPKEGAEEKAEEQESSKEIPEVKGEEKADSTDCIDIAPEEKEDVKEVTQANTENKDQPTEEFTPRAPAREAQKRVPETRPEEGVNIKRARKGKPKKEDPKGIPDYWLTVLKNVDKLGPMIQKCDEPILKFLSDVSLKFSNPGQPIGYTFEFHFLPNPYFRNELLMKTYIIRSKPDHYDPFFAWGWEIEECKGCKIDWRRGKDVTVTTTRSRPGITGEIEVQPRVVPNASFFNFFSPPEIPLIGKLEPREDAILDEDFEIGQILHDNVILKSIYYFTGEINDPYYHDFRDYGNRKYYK
Description: three-level pooled pull-down screen, streptavidin beads.

Results are given in words; binding and its absence hold for the method and conditions named. Binding seen in cells or lysates may run through a third protein. Some binding calls cover weakened binding; strength is not graded here.

B1: Bpx protein (nucleosome assembly protein homologue) (2-1H) (protein, mouse, UniProt P51860 1-460, looked up)
chain: MAESVDHKELSESNQEELGSQVMAEGPGESQDRSEGVSIEPGDGGQHGEETVAAGVGEEGKGEEAAAGSGEDAGKCGGTDEDSDSDRPKGLIGYLLDTDFVESLPVKVKCRVLALKKLQTRAAHLESKFLREFHDIERKFAEMYQPLLEKRRQIINAVYEPTEEECEYKSDCEDYFEEEMDEEEETNGNEDGMVHEYVDEDDGYEDCYYDYDDEEEEEEEDDSAGATGGEEVNEEDPKGIPDFWLTVLKNVEALTPMIKKYDEPILKLLTDIKVKLSDPGEPLSFTLEFHFKPNEYFKNELLTKTYVLKSKLACYDPHPYRGTAIEYATGCDIDWNEGKNVTLRTIKKKQRHRVWGTVRTVTEDFPKDSFFNFFSPHGISLNGGDENDDFLLGHNLRTYIIPRSVLFFSGDALESQQEGVVREVNDEIYDKIIYDDWMAAIEEVKACCKNLEALVEDIDR
modifications: 35S-methionine label or biotinylated lysine, by its role in the assay
With B1, the binding result is “binds”.
